# From PubChem BioAssay AID504444 (National Center for Advancing Translational Sciences (NCATS), 2011)
# Hit rate of the full screen: of about 360,000 compounds, about 7,500 (2.1%) were called active. The inconclusive results got no clear call from the source; some entries with a clear call stand among them for comparison. Calls come from the whole dose curve; as a rule, active = well fitted inhibition curve with a large enough effect; inconclusive = small, poorly fitted or top-dose-only effect, or effect the other way; inactive = flat fitted curve, though single readings scatter. A potency beside an inconclusive call is a rough fit, not a confirmed value.
# Assay: Nrf2 qHTS screen for inhibitors; note: nearly all actives have a fitted effect of over 60% in size
# Conditions: A549 ARE-Fluc reporter, luciferase luminescence, 18-24 h; series mostly up to 46 µM
# How it was run: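 In this cell-based qHTS, ARE-driven firefly luciferase in A549 cells reports Nrf2 activity; the luminescent signal after BugLite lysis is the measured value, with a prior CellTiter-Fluor read for cell health.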
# Potency is the fitted concentration of half-maximal effect.
row,Structure (SMILES),Potency
1,CC1C(=O)N2CCCc3cc(S(=O)(=O)N4CCN(c5ccccc5F)CC4)cc1c32 (stereo not drawn),"inconclusive: 23.1 µM [falling, single point]"
2,O=C1CC(N(CCc2ccccc2)C(=S)Nc2cc(Cl)ccc2Cl)C(=O)N1c1c(Cl)cccc1Cl (stereo not drawn),"inconclusive: 29.1 µM [falling, single point]"
3,CC1(C)NC(=O)N(CC(O)COc2ccc(-c3ccccc3)cc2)C1=O (stereo not drawn),"inconclusive: 25.9 µM [falling, single point]"
4,O=C(Nc1ccccc1C(=O)NCCc1ccccc1)c1cnccn1,"inconclusive: 11.6 µM [activator, partial curve]"
5,CC(C)Cn1c(N)c(C(=O)COC(=O)c2cc(-c3ccccc3)nc3ccccc23)c(=O)n(C)c1=O,"inconclusive: 29.1 µM [falling, single point]"
6,COc1cc(-c2cc(OC)c3c(C)oc(C)c3c(=O)c2)ccc1OC(=O)c1ccccc1F,"inconclusive: 32.6 µM [falling, partial curve, poor fit]"
7,CCc1cc2c(SCC(=O)Nc3ncc(Cl)c(C)c3Cl)ncnc2s1,"inconclusive: 23.1 µM [falling, partial curve, poor fit]"
8,COc1ccccc1C(=O)NC1=NC(c2ccc(Br)cc2)CC(=O)N1 (stereo not drawn),"inconclusive: 2.91 µM [activator, partial curve]"
9,O=S(=O)(Nc1ncnc2sc3c(c12)CCC3)c1ccc2ccccc2c1,"inconclusive: 13 µM [falling, partial curve, poor fit]"
10,C[N+]1(CCn2ccc3ccccc32)CCCCC1,"inconclusive: 5.8 µM [activator, full curve, poor fit]"
11,COc1cc(OC)cc(C(=O)N[C@H](C(=O)NCc2ccco2)C(C)C)c1,inactive
12,CN(Cc1cccc(Cl)c1Cl)C(=O)c1cc(S(=O)(=O)N2CCOCC2)ccc1F,"inconclusive: 20.6 µM [falling, single point]"
13,Cc1cc(=O)n2[nH]c(-c3ccc(C(C)(C)C)cc3)cc2n1,"inconclusive: 29.1 µM [falling, single point]"
14,N#C/C=C\Oc1ccc(Cl)cc1N,"inconclusive: 10.3 µM [falling, partial curve, poor fit]"
15,CCOC(=O)c1cnc(-n2nc(C)cc2C)nc1Nc1ccc(N(C)C)cc1,inactive
16,CCN1CCN(CCNC(=O)CS(=O)(=O)Cc2nc(-c3ccc(C)cc3)oc2C)CC1,"inconclusive: 2.91 µM [falling, full curve]"
17,C=CCN(C(=O)CCC(=O)Nc1cc(C)on1)C(C(=O)NC1CCCC1)c1ccc(OC)cc1OC (stereo not drawn),inactive
18,O=C(CN1C(=O)NC2(CCCC2)C1=O)N1CCN(S(=O)(=O)c2cccc(C(F)(F)F)c2)CC1,inactive
19,CC1=C(c2ccc(C)cc2)S(=O)(=O)N(Cc2ccc(C(=O)NCc3ccccc3F)cc2)C1=O,inactive
20,CCN(Cc1ccccc1)S(=O)(=O)c1cc(C(=O)NCC2CCCCC2)ccc1OC,active: 11.6 µM
21,Cc1ccc(C(=O)c2sc(Nc3ccc(F)cc3)nc2N)c(C)c1,"inconclusive: 23.1 µM [falling, partial curve, poor fit]"
22,S=C(NCc1ccncc1)Nc1ccc(Br)cc1,"inconclusive: 25.9 µM [falling, single point]"
23,Nc1nc(-c2ccco2)nn1C(=O)c1ccc(F)cc1,active: 18.4 µM

row,Structure (SMILES),Potency
1,O=C1CCCc2[nH]c(=O)c(-c3nc(-c4cccc([N+](=O)[O-])c4)cs3)cc21,inactive
2,CC(=O)c1ccc(NC(=O)Cn2c(=O)oc3cc(S(=O)(=O)N4CCCCC4)ccc32)cc1,inactive
3,CCc1nnc(NC(=O)c2ccccc2NC(=O)C2CCN(C(=O)c3ccco3)CC2)s1,inactive
4,Cc1ccc(N2C(=O)CC(Cc3cccc(C)c3)C2=O)cc1 (stereo not drawn),inactive
5,Cc1ccccc1/C(N)=N/OC(=O)c1ccc(F)cc1,"inconclusive: 29.1 µM [falling, single point]"
6,O=C(NC12CC3CC(CC(C3)C1)C2)c1ccccc1O,inactive
7,Cc1cc(-c2nc(-c3ccncc3)no2)ccc1[N+](=O)[O-],"inconclusive: 7.31 µM [activator, partial curve]"
8,COc1ccc(NC(=O)C2CC(c3ccc(Cl)cc3)=NO2)cc1OC (stereo not drawn),"inconclusive: 20.6 µM [falling, single point]"
9,Cc1cccc(C)c1NC(=O)Cn1c(=O)cc(C)c2c(C)nn(-c3cccc(Cl)c3C)c21,inactive
10,CCN(CC)C(=O)c1sc(NC(=S)N2CCN(C(=O)C3CCCO3)CC2)c(C(=O)OC)c1C (stereo not drawn),"inconclusive: 16.4 µM [falling, partial curve]"
11,CN(C)CCCNS(=O)(=O)c1ccc(N2CCN(Cc3ccc4c(c3)OCO4)CC2)c([N+](=O)[O-])c1,inactive
12,CC1(c2nnc(-c3ccncc3)o2)CC(c2ccc([N+](=O)[O-])cc2)=NO1 (stereo not drawn),active: 11.6 µM
13,c1ccc(N2CCCCC2)c(Nc2nc3ccccc3n3cnnc23)c1,"inconclusive: 16.4 µM [falling, single point]"
14,Nc1c(-c2ccccc2)cnc2cc(-c3ccccc3)nn12,"inconclusive: 3.26 µM [activator, partial curve]"
15,CCS(=O)(=O)c1nc(NC(C)=O)n[nH]1,"inconclusive: 29.1 µM [activator, single point]"
16,Cc1ccc(NC(=O)C(c2ccccc2)N(C)C)cc1Cl (stereo not drawn),"inconclusive: 4.61 µM [activator, single point]"
17,O=C1C=C(NCCc2cc(Br)c(O)c(Br)c2)C(=O)c2ncccc21,"inconclusive: 29.1 µM [falling, single point]"
18,COc1ccc(C(=O)N2CCN(c3ccc([N+](=O)[O-])c(-n4nc(C)cc4C)c3)CC2)cc1,inactive
19,Cc1ccc(-c2nc(C(=O)O)cs2)cc1,"inconclusive: 20.6 µM [activator, single point]"
20,COC(=O)c1ccccc1NC(=O)c1cccc(NC(=O)C(C)C)c1,"inconclusive: 0.731 µM [falling, partial curve, poor fit]"
21,COc1ccc(Nc2ccc(S(=O)(=O)N3CCCCC3)cc2[N+](=O)[O-])cc1OC,"inconclusive: 2.06 µM [falling, full curve]"
22,Cc1cccc(C)c1N1C(=O)C2ON(c3ccccc3)C(c3ccncc3)C2C1=O (stereo not drawn),"inconclusive: 2.91 µM [activator, partial curve, poor fit]"
23,c1nc(C2CCCCC2)cc2cc3c(cc12)OCO3,"inconclusive: 23.1 µM [activator, partial curve]"

# A draw from above in order of heavy-atom count, smallest number first.
row,Structure (SMILES),Potency
23,c1nc(C2CCCCC2)cc2cc3c(cc12)OCO3,"inconclusive: 23.1 µM [activator, partial curve]"
4,Cc1ccc(N2C(=O)CC(Cc3cccc(C)c3)C2=O)cc1 (stereo not drawn),inactive
17,O=C1C=C(NCCc2cc(Br)c(O)c(Br)c2)C(=O)c2ncccc21,"inconclusive: 29.1 µM [falling, single point]"
12,CC1(c2nnc(-c3ccncc3)o2)CC(c2ccc([N+](=O)[O-])cc2)=NO1 (stereo not drawn),active: 11.6 µM
11,CN(C)CCCNS(=O)(=O)c1ccc(N2CCN(Cc3ccc4c(c3)OCO4)CC2)c([N+](=O)[O-])c1,inactive

# Next part:

row,Structure (SMILES),Potency
1,O=C(Nc1ccccc1)C1Cc2ccccc2CN1C(=O)c1ccco1 (stereo not drawn),"inconclusive: 9.2 µM [activator, partial curve]"
2,O=C(/C=C/c1cccc([N+](=O)[O-])c1)N1CCN(c2ccc(F)cc2)CC1,"inconclusive: 18.4 µM [falling, single point]"
3,Cc1ccc(C)c(S(=O)(=O)N2CCCC2CNC(=O)C(=O)NCc2ccccc2)c1 (stereo not drawn),inactive
4,CCCOc1ccc(C(=O)NCCc2ccccc2)cc1,"inconclusive: 1.03 µM [activator, partial curve]"
5,COCCn1cnc2c1-c1ccc(OC)c(c1)OC/C=C\COc1cccc-2c1,inactive
6,O=C(c1nn(Cc2ccccc2)c(=O)c2ccccc12)N1CCN(C/C=C/c2ccccc2)CC1,"inconclusive: 29.1 µM [falling, single point]"
7,O=C(N/N=C/c1ccc([N+](=O)[O-])o1)c1cccc(S(=O)(=O)N2CCOCC2)c1,"inconclusive: 14.6 µM [activator, partial curve]"
8,CSCCC(C)N1CCC(Oc2ccc(C(=O)N3CCCC3)cc2)CC1 (stereo not drawn),"inconclusive: 9.2 µM [activator, partial curve, poor fit]"
9,CCCC1=Nc2cc(C(=O)NCCCOCC)ccc2Sc2ccccc21,inactive
10,O=C1Nc2ccccc2C1(O)C/C(=N/O)c1ccccc1 (stereo not drawn),"inconclusive: 32.6 µM [activator, partial curve, poor fit]"
11,O=[S+]([O-])(c1c(F)cccc1F)N1CCN([S+](=O)([O-])c2cccc3nonc23)CC1,inactive
12,CC(NC(=O)c1cc2c(=O)n(C)c3ccccc3c2n1C)c1ccc2c(c1)OCCO2 (stereo not drawn),"inconclusive: 32.6 µM [falling, single point]"
13,Cc1ccc(-n2cnc3c(=O)[nH]cnc32)cc1,"inconclusive: 0.58 µM [activator, full curve, poor fit]"
14,O=C(Nc1nc(-c2cc(Cl)sc2Cl)cs1)c1cccs1,"inconclusive: 18.4 µM [falling, single point]"
15,CC(=C\c1ccccc1)/C=C1/SC(=S)N(C(C(=O)O)C(C)C)C1=O (stereo not drawn),"inconclusive: 29.1 µM [activator, partial curve, poor fit]"
16,CCCN1CCN(C(=O)Cn2ncc3c4ccccc4n(Cc4cccc(Cl)c4)c3c2=O)CC1,inactive
17,O=C(NCC1CCCO1)c1sc2cc(Cl)ccc2c1Cl (stereo not drawn),"inconclusive: 29.1 µM [activator, single point]"
18,COc1ccccc1C(=O)Nc1ccc(C(=O)/C=C/c2cccs2)cc1,"inconclusive: 29.1 µM [falling, single point]"
19,COc1cc(/C=N/OCC(=O)NC23CC4CC(CC(C4)C2)C3)ccc1OCc1ccccc1,"inconclusive: 29.1 µM [falling, single point]"
20,Cc1ccnc(NC(c2cccnc2)c2ccc3cccnc3c2O)c1 (stereo not drawn),inactive
21,Cc1ccc(NC(=O)C2CCCN(c3ncnc4c3nc3n4CCCCC3)C2)cc1Cl (stereo not drawn),inactive
22,COc1ccccc1CC(=O)N1CCN(c2ccccn2)CC1,inactive
